Data source: PubChem BioAssay AID1224826 (NIAID, 2016)
Screen: 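Genes that change LPS-induced Tnf promoter activity in mouse macrophages when knocked down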 (primary screen). System: RAW264.7 G9 macrophages from mouse bearing reporters for p65 (GFP) and the Tnf promoter (mCherry). Knock-down reagent: siRNA pool against mouse genes, 100 nM. Timing: 16 h of LPS stimulation, after 2 days of siRNA transfection. Treatment: bacterial lipopolysaccharide (Salmonella minnesota R595), 10 ng/ml. Detection: 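Imaged Tnf reporter mCherry in nuclei, minus background, normalised per plate to the median and expressed as robust z-scores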. Scale: Tnf reporter robust z-score: higher = stronger Tnf promoter reporter signal after LPS; Tnf reporter intensity: higher = stronger Tnf promoter reporter signal. Rule for the call: 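Called active when robust z-score is at most -1.3, matching the median of the Tlr4 knock-down control, or over 3; control wells and wells with under 50 cells never active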. Meaning of the calls: active = Tnf reporter clearly lowered or raised; inactive = no clear change in Tnf reporter.
This is one part, drawn at random, of about 17,000 deposited reagents. About 1,110 of them (6.6%) count as active. 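Active means lowered or raised reporter signal; replicate intensities are raw and not normalised per plate.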

no.	gene	Tnf reporter robust z-score	fewer than 50 cells in well	Tnf reporter intensity, replicate 1	Tnf reporter intensity, replicate 2	Call
1	Cd33 (GeneID 12489)	-0.69	enough cells in well	117	147	inactive
2	Tox (GeneID 252838)	-1.54	enough cells in well	62.4	39.9	active
3	Drc2 (GeneID 105833)	-0.54	enough cells in well	154	111	inactive
4	Pcdhga6 (GeneID 93714)	-0.32	enough cells in well	136	115	inactive
5	Nol4 (GeneID 319211)	-0.58	enough cells in well	147	124	inactive
6	Sebox (GeneID 18292)	0.57	enough cells in well	293	122	inactive
7	Mrpl57 (GeneID 67840)	4.08	enough cells in well	642	194	active
8	Fasl (GeneID 14103)	-1.16	enough cells in well	127	91	inactive
9	Zfp938 (GeneID 237411)	-0.26	enough cells in well	141	160	inactive
10	Clmb (GeneID 68918)	3.15	enough cells in well	352	177	active
11	Eif5a2 (GeneID 208691)	-0.97	enough cells in well	112	86.6	inactive
12	Gnaq (GeneID 14682)	-0.1	enough cells in well	194	310	inactive
13	Aff4 (GeneID 93736)	-0.64	enough cells in well	188	118	inactive
14	Ppp1r11 (GeneID 76497)	-0.59	enough cells in well	205	147	inactive
15	Nudt18 (GeneID 213484)	-0.18	enough cells in well	168	225	inactive
16	Tll1 (GeneID 21892)	-0.2	enough cells in well	209	131	inactive
17	Ndufa8 (GeneID 68375)	-0.38	enough cells in well	249	63.9	inactive
18	Taar9 (GeneID 503558)	-0.3	enough cells in well	199	256	inactive
19	Arf3 (GeneID 11842)	0.84	enough cells in well	215	218	inactive
20	Ociad1 (GeneID 68095)	-0.59	enough cells in well	125	144	inactive
21	Gpr21 (GeneID 338346)	0.24	enough cells in well	265	196	inactive
22	Or5ac21 (GeneID 258479)	1.43	enough cells in well	283	168	inactive
23	Nr4a2 (GeneID 18227)	0.24	enough cells in well	310	158	inactive
24	Calu (GeneID 12321)	1.53	enough cells in well	246	272	inactive
25	Tcf3 (GeneID 21423)	1.17	enough cells in well	353	169	inactive
26	Prss29 (GeneID 114662)	-0.05	enough cells in well	198	123	inactive
27	Acox3 (GeneID 80911)	0.96	enough cells in well	305	218	inactive
28	Zfp738 (GeneID 408068)	-0.72	enough cells in well	141	139	inactive
29	Zmpste24 (GeneID 230709)	0.85	enough cells in well	408	234	inactive
30	Spats2 (GeneID 72572)	0.81	enough cells in well	147	109	inactive
31	Rapgef5 (GeneID 217944)	-0.33	enough cells in well	291	171	inactive
32	Or5p64 (GeneID 258727)		fewer than 50 cells per well; well left out of calls	36.3	69.9	inactive
33	Catsper3 (GeneID 76856)	-0.14	enough cells in well	135	197	inactive
34	Mtmr9 (GeneID 210376)	0.95	enough cells in well	410	219	inactive
35	Mobp (GeneID 17433)	5.18	enough cells in well	484	368	active
36	Prr3 (GeneID 75210)	0.36	enough cells in well	172	118	inactive
37	Ddb1 (GeneID 13194)	0.29	enough cells in well	228	252	inactive
38	Or52n4 (GeneID 259051)	-0.86	enough cells in well	82	81.5	inactive
39	Or4f4b (GeneID 258399)	1.6	enough cells in well	309	165	inactive
40	C1qtnf12 (GeneID 67389)	-0.57	enough cells in well	228	57.7	inactive
41	Stmn2 (GeneID 20257)	-0.04	enough cells in well	282	206	inactive
42	Cth (GeneID 107869)	0.73	enough cells in well	252	293	inactive
43	Or8g35 (GeneID 258242)	0.56	enough cells in well	167	166	inactive
44	Akap1 (GeneID 11640)	-0.46	enough cells in well	119	174	inactive
45	Tor4a (GeneID 227612)		fewer than 50 cells per well; well left out of calls	112	86.4	inactive
46	X99300 (retired record) (GeneID 57359)	2.77	enough cells in well	271	206	inactive
47	Fsaf1 (GeneID 66523)	3.02	enough cells in well	396	175	active
48	Dbi (GeneID 13167)	-0.95	enough cells in well	146	168	inactive
49	Nectin2 (GeneID 19294)	0.95	enough cells in well	417	265	inactive
50	Clic5 (GeneID 224796)	0.68	enough cells in well	299	259	inactive
51	Calr (GeneID 12317)	2.79	enough cells in well	235	379	inactive
52	Rpl41 (GeneID 67945)	-0.83	enough cells in well	101	83.3	inactive
53	Kifc2 (GeneID 16581)	-0.18	enough cells in well	169	182	inactive
54	Zfp689 (GeneID 71131)	-0.85	enough cells in well	141	90.5	inactive
55	Or2ag2b (GeneID 66786)	1.93	enough cells in well	109	262	inactive
56	Rab2b (GeneID 76338)	-1.16	enough cells in well	176	30.6	inactive
57	Or52r1b (GeneID 259055)		fewer than 50 cells per well; well left out of calls	21.3	75.8	inactive
58	Tmem139 (GeneID 109218)	-1.45	enough cells in well	89.8	75.2	active

4 of these entries in another layout:
| gene | Tnf reporter robust z-score | fewer than 50 cells in well | Tnf reporter intensity, replicate 1 | Tnf reporter intensity, replicate 2 | Call |
| --- | --- | --- | --- | --- | --- |
| Sebox (GeneID 18292) | 0.57 | enough cells in well | 293 | 122 | inactive |
| Mrpl57 (GeneID 67840) | 4.08 | enough cells in well | 642 | 194 | active |
| Fasl (GeneID 14103) | -1.16 | enough cells in well | 127 | 91 | inactive |
| Zfp938 (GeneID 237411) | -0.26 | enough cells in well | 141 | 160 | inactive |
